Source: article PMC6811539, “Minute-scale persistence of a GPCR conformation state triggered by non-cognate G protein interactions primes signaling” (Nature Communications, 2019)
Results are given in words; binding and its absence hold for the method and conditions named. In cells and extracts the contact can be indirect. Some entries that bind do so weakly or less than the wild type.

Experiments:
β2-AR-mCerulean (human) [1] = molecular target: β2-AR-mCerulean (human) (UniProt P07550); experiment: pull-down; competition pull-down: 30 μM bioQp with 30 μM Qp or 50 μM PC-Qp, 100 μM isoproterenol, native membranes with 10 nM β2-mCer, streptavidin-coated magnetic beads; without UV or with UV exposure for 2 min before the beads; only the binder purified
β2-AR-mCerulean (human) [2] = molecular target: β2-AR-mCerulean (human) (UniProt P07550); experiment: pull-down; release step of the binding-and-release assay: 100 μM unlabeled Qp/Sp added to the precipitated beads holding β2-mCer through the biotinylated peptide; released receptor from mCer fluorescence of the supernatant, within 30 s; only the binder purified

binding (β2-AR-mCerulean (human) [2]) | Binder | binding (β2-AR-mCerulean (human) [1])
– | DTENIRFVFAAVKDTILQLNLKE [N-term fragment of PC-Qp after UV irradiation] | no binding (tested: 50 μM PC-Qp, UV-irradiated for 2 min)
binds weakly | DTENIRFVFAAVKDTILQLNLKEYNLV [Qp (Gαq C terminus peptide)] | –
